This is one part of the list.
Key:
Experiment in all cases: log2 fold change, soluble protein after heating vs DMSO (PISA); higher = thermal stabilisation; K562 cells, 10 uM, 30 min; active = over 0.2 and 3.5 SD of the protein, either way, in both replicates (recomputed)
[1] = compound: CC1=C(C=C(C=C1)NC(=O)C2=CC(=CC=C2)C(C)(C)C#N)NC3=CC4=C(C=C3)N=CN(C4=O)C
Method in brief: (§1)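 Soluble protein was quantified by TMTpro 16plex LC-MS/MS after channel sums were equalised. It was obtained as the supernatant after 21,000xg for 90 min from pooled aliquots of K562 cells (2×10^6 cells/mL, 10 μM compound, 30 min) heated for 3 min across 48°C-58°C and extracted in PBS with 0.5% NP-40 at 4°C. Thermal stability values are relative to control samples and come from duplicates. They are given as log2 fold changes.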

Protein sequences, listed by entry. Tags and fused reporters are not part of them. Lines headed by an entry give the natural chain unless they say otherwise; changes in a name come on top.
UniProt P78356: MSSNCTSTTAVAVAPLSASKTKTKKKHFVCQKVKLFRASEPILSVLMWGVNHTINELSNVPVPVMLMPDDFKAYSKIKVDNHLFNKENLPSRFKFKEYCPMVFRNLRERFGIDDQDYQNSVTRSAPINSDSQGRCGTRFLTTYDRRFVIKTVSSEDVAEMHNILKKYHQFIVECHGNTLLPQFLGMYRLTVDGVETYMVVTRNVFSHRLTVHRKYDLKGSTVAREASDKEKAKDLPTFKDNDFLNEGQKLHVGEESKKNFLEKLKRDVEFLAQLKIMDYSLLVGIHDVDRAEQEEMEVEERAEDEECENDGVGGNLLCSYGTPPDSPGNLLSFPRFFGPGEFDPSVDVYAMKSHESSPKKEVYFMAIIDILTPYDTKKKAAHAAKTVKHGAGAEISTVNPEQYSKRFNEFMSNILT
UniProt Q13393: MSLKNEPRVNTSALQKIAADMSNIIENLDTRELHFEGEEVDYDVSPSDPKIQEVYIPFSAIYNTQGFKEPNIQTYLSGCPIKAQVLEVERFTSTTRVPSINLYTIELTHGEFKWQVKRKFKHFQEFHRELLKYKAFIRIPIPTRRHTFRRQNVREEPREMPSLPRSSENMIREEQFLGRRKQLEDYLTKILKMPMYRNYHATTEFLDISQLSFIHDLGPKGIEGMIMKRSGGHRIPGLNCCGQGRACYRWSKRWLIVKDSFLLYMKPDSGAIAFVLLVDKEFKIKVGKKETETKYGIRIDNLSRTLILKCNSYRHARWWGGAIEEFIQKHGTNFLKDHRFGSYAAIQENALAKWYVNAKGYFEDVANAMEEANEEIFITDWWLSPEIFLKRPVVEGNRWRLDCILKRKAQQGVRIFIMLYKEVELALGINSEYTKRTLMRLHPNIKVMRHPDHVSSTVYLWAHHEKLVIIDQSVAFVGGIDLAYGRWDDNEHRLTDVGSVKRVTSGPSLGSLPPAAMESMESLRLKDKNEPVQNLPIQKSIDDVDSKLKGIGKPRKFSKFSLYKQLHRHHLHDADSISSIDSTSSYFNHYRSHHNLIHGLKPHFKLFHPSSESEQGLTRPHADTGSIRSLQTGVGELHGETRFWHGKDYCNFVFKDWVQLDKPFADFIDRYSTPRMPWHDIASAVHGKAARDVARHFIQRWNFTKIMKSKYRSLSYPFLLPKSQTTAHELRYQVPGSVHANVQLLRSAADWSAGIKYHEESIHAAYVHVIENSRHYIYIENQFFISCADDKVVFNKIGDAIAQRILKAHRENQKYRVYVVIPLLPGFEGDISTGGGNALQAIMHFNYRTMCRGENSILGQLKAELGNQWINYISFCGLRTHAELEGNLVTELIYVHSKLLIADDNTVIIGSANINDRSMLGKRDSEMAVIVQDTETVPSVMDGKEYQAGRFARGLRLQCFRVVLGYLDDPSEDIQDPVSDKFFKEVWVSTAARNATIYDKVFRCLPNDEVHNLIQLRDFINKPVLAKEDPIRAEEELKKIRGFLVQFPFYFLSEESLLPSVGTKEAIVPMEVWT
UniProt O00628: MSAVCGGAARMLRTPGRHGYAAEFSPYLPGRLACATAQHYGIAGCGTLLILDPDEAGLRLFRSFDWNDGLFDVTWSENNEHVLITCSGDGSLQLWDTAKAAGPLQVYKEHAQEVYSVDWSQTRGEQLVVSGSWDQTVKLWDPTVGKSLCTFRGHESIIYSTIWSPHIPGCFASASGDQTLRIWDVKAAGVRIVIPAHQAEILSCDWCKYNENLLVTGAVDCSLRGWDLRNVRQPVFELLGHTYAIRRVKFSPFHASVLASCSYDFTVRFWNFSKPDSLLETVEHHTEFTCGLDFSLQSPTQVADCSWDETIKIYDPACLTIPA
UniProt Q15149: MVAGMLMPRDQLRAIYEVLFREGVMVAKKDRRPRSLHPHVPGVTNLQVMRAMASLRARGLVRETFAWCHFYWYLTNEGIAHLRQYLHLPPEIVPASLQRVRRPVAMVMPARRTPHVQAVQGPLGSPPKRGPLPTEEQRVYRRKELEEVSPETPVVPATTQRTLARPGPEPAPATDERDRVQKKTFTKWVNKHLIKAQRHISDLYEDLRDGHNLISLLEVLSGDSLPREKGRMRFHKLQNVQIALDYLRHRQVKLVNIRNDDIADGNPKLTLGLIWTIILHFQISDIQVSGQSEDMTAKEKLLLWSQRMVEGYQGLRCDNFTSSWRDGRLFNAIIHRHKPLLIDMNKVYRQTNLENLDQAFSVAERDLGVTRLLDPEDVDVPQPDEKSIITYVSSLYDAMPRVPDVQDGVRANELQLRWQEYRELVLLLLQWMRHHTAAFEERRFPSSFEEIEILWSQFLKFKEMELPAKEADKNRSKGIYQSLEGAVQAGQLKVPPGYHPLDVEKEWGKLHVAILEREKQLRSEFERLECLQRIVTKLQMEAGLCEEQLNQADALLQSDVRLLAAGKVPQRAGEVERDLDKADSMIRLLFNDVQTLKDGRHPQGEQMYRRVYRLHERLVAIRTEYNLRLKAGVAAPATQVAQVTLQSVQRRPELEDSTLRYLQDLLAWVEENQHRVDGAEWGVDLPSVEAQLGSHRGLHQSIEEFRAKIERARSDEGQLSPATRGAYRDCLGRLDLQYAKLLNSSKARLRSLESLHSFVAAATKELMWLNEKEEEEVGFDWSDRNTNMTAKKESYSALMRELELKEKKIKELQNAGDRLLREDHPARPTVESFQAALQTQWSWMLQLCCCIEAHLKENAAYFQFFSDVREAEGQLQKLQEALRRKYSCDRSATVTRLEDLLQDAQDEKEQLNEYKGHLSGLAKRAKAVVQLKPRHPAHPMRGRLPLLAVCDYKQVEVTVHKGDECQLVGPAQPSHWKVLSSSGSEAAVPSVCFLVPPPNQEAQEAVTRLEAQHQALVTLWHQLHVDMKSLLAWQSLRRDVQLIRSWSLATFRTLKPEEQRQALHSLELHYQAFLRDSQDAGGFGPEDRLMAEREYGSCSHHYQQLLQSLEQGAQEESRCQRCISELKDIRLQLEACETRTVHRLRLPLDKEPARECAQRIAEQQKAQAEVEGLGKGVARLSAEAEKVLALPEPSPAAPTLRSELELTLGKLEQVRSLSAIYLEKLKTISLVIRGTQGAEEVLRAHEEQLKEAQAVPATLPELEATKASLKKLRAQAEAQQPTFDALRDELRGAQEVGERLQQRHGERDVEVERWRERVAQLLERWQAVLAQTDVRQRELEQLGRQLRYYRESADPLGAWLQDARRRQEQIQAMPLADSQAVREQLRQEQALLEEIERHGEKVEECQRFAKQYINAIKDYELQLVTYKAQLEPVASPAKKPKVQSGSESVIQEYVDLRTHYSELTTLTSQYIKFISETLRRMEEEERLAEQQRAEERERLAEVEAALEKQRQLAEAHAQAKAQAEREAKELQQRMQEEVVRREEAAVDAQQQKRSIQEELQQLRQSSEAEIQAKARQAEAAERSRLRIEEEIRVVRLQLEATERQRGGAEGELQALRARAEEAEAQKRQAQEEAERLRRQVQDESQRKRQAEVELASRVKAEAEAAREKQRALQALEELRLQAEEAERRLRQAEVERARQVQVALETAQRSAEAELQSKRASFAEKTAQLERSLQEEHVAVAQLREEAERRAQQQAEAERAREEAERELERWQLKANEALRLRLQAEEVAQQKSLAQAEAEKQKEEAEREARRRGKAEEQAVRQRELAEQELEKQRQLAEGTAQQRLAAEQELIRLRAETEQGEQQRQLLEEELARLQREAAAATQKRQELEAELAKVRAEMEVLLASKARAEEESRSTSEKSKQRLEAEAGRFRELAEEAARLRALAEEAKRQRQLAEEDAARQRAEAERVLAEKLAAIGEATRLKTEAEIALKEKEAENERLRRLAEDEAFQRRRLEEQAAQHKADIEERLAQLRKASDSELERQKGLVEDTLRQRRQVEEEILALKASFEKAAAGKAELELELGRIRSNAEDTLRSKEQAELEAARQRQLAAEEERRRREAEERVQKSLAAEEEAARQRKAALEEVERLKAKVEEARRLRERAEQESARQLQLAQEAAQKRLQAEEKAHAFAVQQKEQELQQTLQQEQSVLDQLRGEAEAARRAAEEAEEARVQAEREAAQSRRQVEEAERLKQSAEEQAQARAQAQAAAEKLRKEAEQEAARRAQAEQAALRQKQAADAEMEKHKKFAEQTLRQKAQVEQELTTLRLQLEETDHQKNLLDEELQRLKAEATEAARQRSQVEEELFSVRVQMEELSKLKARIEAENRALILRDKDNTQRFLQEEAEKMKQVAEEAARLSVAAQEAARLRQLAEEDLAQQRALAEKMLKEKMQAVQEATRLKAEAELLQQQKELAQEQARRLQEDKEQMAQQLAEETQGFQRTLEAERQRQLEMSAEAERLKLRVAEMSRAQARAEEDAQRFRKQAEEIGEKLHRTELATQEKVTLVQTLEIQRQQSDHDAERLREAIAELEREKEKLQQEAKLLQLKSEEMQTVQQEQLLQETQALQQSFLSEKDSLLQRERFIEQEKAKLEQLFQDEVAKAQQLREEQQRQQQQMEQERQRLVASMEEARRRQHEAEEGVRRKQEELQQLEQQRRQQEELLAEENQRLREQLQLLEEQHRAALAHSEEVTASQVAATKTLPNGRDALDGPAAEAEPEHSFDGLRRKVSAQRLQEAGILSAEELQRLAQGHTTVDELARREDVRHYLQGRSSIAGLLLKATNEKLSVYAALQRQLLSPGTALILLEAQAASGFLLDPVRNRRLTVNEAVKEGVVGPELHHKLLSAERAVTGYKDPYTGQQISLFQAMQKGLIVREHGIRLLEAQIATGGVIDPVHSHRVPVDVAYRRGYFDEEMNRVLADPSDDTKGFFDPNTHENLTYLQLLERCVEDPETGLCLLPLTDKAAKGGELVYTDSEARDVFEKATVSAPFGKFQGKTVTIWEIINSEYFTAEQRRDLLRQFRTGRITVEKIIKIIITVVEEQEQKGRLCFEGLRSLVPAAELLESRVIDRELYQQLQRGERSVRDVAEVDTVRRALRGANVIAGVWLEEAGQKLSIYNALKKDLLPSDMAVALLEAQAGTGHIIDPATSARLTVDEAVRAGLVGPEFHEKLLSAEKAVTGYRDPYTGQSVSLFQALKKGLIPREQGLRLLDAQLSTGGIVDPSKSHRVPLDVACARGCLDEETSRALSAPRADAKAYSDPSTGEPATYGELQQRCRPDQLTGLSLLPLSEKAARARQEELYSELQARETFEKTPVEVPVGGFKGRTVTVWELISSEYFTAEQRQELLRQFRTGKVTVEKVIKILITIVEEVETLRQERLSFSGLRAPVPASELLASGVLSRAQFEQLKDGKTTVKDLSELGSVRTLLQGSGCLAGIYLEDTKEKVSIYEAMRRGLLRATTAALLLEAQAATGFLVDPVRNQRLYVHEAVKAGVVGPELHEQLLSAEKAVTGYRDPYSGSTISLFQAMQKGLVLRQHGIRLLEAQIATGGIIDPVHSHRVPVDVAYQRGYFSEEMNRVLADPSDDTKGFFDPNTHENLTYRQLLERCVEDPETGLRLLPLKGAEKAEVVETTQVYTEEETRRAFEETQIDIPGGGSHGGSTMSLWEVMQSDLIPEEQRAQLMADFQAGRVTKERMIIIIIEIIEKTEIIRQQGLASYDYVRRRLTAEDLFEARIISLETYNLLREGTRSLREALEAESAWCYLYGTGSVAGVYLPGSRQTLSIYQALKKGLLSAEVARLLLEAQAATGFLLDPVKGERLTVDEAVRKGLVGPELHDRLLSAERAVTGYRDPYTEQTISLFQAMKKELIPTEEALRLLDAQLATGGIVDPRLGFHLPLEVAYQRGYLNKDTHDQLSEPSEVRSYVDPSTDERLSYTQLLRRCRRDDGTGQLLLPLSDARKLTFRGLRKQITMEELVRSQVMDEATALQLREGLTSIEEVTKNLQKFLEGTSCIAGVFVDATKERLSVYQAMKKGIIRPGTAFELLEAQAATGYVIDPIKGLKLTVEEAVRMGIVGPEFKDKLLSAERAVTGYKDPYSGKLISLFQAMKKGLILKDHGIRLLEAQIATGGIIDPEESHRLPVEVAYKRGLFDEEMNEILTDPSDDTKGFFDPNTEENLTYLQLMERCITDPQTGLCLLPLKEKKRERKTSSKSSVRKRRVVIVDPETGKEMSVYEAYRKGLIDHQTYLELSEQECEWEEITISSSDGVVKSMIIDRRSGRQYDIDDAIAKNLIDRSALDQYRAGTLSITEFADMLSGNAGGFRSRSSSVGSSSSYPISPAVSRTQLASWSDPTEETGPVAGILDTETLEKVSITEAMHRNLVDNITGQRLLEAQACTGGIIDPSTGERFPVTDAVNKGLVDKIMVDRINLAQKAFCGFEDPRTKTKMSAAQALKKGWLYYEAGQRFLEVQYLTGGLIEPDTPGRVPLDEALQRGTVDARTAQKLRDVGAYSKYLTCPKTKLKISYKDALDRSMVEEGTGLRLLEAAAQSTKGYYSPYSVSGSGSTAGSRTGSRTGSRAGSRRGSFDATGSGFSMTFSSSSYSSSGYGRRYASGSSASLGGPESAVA

[2] = compound: CC1=C(C=C(C=C1)NC(=O)C2=CC(=CC=C2)N(C)C)NC(=O)C3=CC=C(C=C3)O
Method in brief: as §1

[3] = compound: CC1=CC=C(C=C1)SC2=C3C=C(SC3=CN=C2)C(=O)N
Method in brief: as §1

[4] = compound: CC1=NC(=CC=C1)C2=C(N=C(N2)C(C)(C)C)C3=CC4=NC=CN=C4C=C3
Method in brief: as §1

Nexturastat A = compound: CCCCN(Cc1ccc(C(=O)NO)cc1)C(=O)Nc1ccccc1 [Nexturastat A]
Method in brief: as §1

vemurafenib = compound: CCCS(=O)(=O)Nc1ccc(F)c(C(=O)c2c[nH]c3ncc(-c4ccc(Cl)cc4)cc23)c1F [vemurafenib]
Method in brief: as §1

[5] = compound: CCCS(=O)(=O)Nc1ccc(F)c(C(=O)c2c[nH]c3ncc(Cl)cc23)c1F
Method in brief: as §1

[6] = compound: CCCc1cc(C)[nH]c(=O)c1CNC(=O)c1cc(-c2ccnc(N3CCN(C)CC3)c2)cc2c1cnn2C(C)C
Method in brief: as §1

givinostat = compound: CCN(CC)Cc1ccc2cc(COC(=O)Nc3ccc(C(=O)NO)cc3)ccc2c1 [givinostat]
Method in brief: as §1

barasertib = compound: CCN(CCCOc1ccc2c(Nc3cc(CC(=O)Nc4cccc(F)c4)[nH]n3)ncnc2c1)CCOP(=O)(O)O [barasertib]
Method in brief: as §1

Measured: log2 fold change

PIN4 isoform 2 (UniProt Q9Y237)
inactive: [1] -0.022 | [2] 0.012 | [3] 0.001 | [4] 0.032 | Nexturastat A 0.003 | vemurafenib 0.039 | [5] 0.008 | [6] -0.074 | givinostat -0.049 | barasertib -0.002

PHF23 (UniProt Q9BUL5)
inactive: [1] -0.036 | [2] -0.013 | [3] -0.003 | [4] -0.029 | Nexturastat A -0.02 | vemurafenib -0.007 | [5] -0.024 | [6] -0.013 | givinostat 0.008 | barasertib -0.003

PISD (UniProt Q9UG56)
inactive: [1] -0.015 | [2] 0.002 | [3] 0.013 | [4] 0.085 | Nexturastat A 0.022 | vemurafenib -0.068 | [5] 0.049 | [6] 0.009 | givinostat 0.024 | barasertib 0.026

PGGHG (UniProt Q32M88)
inactive: [1] 0.017 | [2] -0.127 | [3] 0.197 | [4] -0.003 | Nexturastat A 0 | vemurafenib -0.044 | [5] -0.091 | [6] -0.175 | givinostat -0.003 | barasertib 0.001

PIP4K2B (UniProt P78356)
inactive: [1] -0.055 | [2] -0.048 | [3] 0.033 | [4] 0.026 | Nexturastat A -0.088 | vemurafenib 0.045 | [5] 0.02 | [6] 0.039 | givinostat -0.076 | barasertib 0.004

PHACTR2 isoform 4 (UniProt O75167)
inactive: [1] -0.092 | [2] -0.001 | [3] 0.036 | [4] -0.031 | Nexturastat A -0.073 | vemurafenib 0.028 | [5] -0.085 | [6] -0.023 | givinostat 0.058 | barasertib 0.07

PIK3R1 (UniProt P27986)
inactive: [1] -0.08 | [2] 0.001 | [3] -0.019 | [4] -0.046 | Nexturastat A -0.018 | vemurafenib 0.047 | [5] 0.058 | [6] -0.054 | givinostat 0.028 | barasertib 0.038

2 records drawn at random from those above, as already listed:
PIP4K2B (UniProt P78356)
inactive: [1] -0.055 | [2] -0.048 | [3] 0.033 | [4] 0.026 | Nexturastat A -0.088 | vemurafenib 0.045 | [5] 0.02 | [6] 0.039 | givinostat -0.076 | barasertib 0.004

PIK3R1 (UniProt P27986)
inactive: [1] -0.08 | [2] 0.001 | [3] -0.019 | [4] -0.046 | Nexturastat A -0.018 | vemurafenib 0.047 | [5] 0.058 | [6] -0.054 | givinostat 0.028 | barasertib 0.038

The list goes on:

PGD (UniProt P52209)
inactive: [1] -0.005 | [2] 0.018 | [3] 0.037 | [4] 0.044 | Nexturastat A -0.076 | vemurafenib -0.009 | [5] 0.064 | [6] 0.01 | givinostat -0.039 | barasertib 0.016

PLCG1 isoform 2 (UniProt P19174)
inactive: [1] 0.045 | [2] -0.011 | [3] 0.039 | [4] -0.012 | Nexturastat A 0.019 | vemurafenib 0.003 | [5] 0.079 | [6] -0.019 | givinostat -0.013 | barasertib 0.031

PKM (UniProt P14618)
inactive: [1] -0.013 | [2] -0.005 | [3] 0.001 | [4] 0.014 | Nexturastat A -0.054 | vemurafenib -0.012 | [5] -0.01 | [6] -0.023 | givinostat 0 | barasertib -0.011

PFDN5 (UniProt Q99471)
inactive: [1] 0.07 | [2] -0.206 | [3] 0.025 | [4] 0.092 | Nexturastat A -0.019 | vemurafenib 0.213 | [5] 0 | [6] 0.031 | givinostat 0.037 | barasertib -0.003

PLBD2 (UniProt Q8NHP8)
inactive: [1] -0.053 | [2] 0.058 | [3] 0.02 | [4] -0.051 | Nexturastat A -0.053 | vemurafenib -0.028 | [5] 0.001 | [6] -0.008 | givinostat 0.004 | barasertib -0.013

PLD1 (UniProt Q13393)
inactive: [1] 0.084 | [2] 0.002 | [3] -0.027 | [4] -0.051 | Nexturastat A 0.334 | vemurafenib -0.023 | [5] 0 | [6] 0.054 | givinostat -0.004 | barasertib 0.021

PIGU (UniProt Q9H490)
inactive: [1] 0.077 | [2] -0.001 | [3] -0.049 | [4] -0.048 | Nexturastat A -0.02 | vemurafenib 0.117 | [5] 0.064 | [6] 0.018 | givinostat 0.015 | barasertib 0.044

PIN1 (UniProt Q13526)
inactive: [1] -0.004 | [2] -0.01 | [3] 0.019 | [4] -0.006 | Nexturastat A 0.026 | vemurafenib 0.039 | [5] 0.04 | [6] -0.011 | givinostat 0.048 | barasertib 0.05

PLCH1 (UniProt Q4KWH8)
inactive: [1] 0.013 | [2] 0.018 | [3] 0.007 | [4] -0.003 | Nexturastat A -0.084 | vemurafenib 0.001 | [5] -0.073 | [6] -0.003 | givinostat 0.043 | barasertib 0.008

PHKA2 (UniProt P46019)
inactive: [1] 0.028 | [2] 0 | [3] 0.028 | [4] 0.053 | Nexturastat A -0.038 | vemurafenib -0.014 | [5] 0.052 | [6] -0.07 | givinostat 0.048 | barasertib 0.057

PHF19 isoform 2 (UniProt Q5T6S3)
inactive: [1] -0.015 | [2] -0.084 | [3] 0.003 | [4] -0.134 | Nexturastat A 0.031 | vemurafenib 0.002 | [5] 0.101 | [6] -0.151 | givinostat -0.013 | barasertib -0.046

PEX7 (UniProt O00628)
inactive: [1] 0.061 | [2] -0.011 | [3] 0.025 | [4] -0.066 | Nexturastat A -0.041 | vemurafenib -0.049 | [5] 0.007 | [6] -0.035 | givinostat -0.107 | barasertib -0.089

PIGK (UniProt Q92643)
inactive: [1] -0.036 | [2] -0.014 | [3] -0.02 | [4] 0.009 | Nexturastat A 0.066 | vemurafenib -0.062 | [5] 0.006 | [6] 0 | givinostat 0.009 | barasertib -0.038

PFKM isoform 3 (UniProt P08237)
inactive: [1] -0.02 | [2] -0.005 | [3] 0.008 | [4] 0 | Nexturastat A -0.071 | vemurafenib -0.021 | [5] 0.004 | [6] -0.02 | givinostat -0.023 | barasertib -0.022

PLEC (UniProt Q15149)
inactive: [1] -0.006 | [2] -0.015 | [3] -0.018 | [4] -0.087 | Nexturastat A 0.173 | vemurafenib -0.059 | [5] -0.032 | [6] 0.013 | givinostat 0.077 | barasertib -0.067

PFDN1 (UniProt O60925)
inactive: [1] 0.039 | [2] -0.131 | [3] 0.089 | [4] 0.041 | Nexturastat A -0.071 | vemurafenib 0.172 | [5] -0.019 | [6] -0.016 | givinostat 0.004 | barasertib 0.002

PIK3R2 (UniProt O00459)
inactive: [1] -0.06 | [2] -0.008 | [3] 0.016 | [4] -0.022 | Nexturastat A 0.02 | vemurafenib 0.052 | [5] -0.065 | [6] -0.069 | givinostat 0.112 | barasertib 0.091

PGP (UniProt A6NDG6)
inactive: [1] 0.007 | [2] -0.014 | [3] 0.027 | [4] 0.019 | Nexturastat A -0.132 | vemurafenib -0.027 | [5] 0.017 | [6] 0.013 | givinostat -0.001 | barasertib 0.001

PFKFB2 (UniProt O60825)
inactive: [1] -0.034 | [2] -0.002 | [3] 0.009 | [4] -0.023 | Nexturastat A -0.037 | vemurafenib 0.019 | [5] -0.009 | [6] -0.013 | givinostat -0.02 | barasertib 0.044

PIEZO1 (UniProt Q92508)
inactive: [1] -0.107 | [2] -0.009 | [3] -0.048 | [4] 0 | Nexturastat A -0.029 | vemurafenib -0.072 | [5] 0.008 | [6] -0.02 | givinostat -0.039 | barasertib -0.024

PIGT (UniProt Q969N2)
inactive: [1] -0.001 | [2] -0.005 | [3] 0.02 | [4] -0.016 | Nexturastat A 0.031 | vemurafenib -0.008 | [5] 0.009 | [6] 0.027 | givinostat -0.033 | barasertib 0.004

PIGG (UniProt Q5H8A4)
inactive: [1] 0.016 | [2] -0.003 | [3] 0.004 | [4] -0.007 | Nexturastat A 0.018 | vemurafenib 0.359 | [5] -0.019 | [6] -0.045 | givinostat 0.001 | barasertib 0.001

PKN1 isoform 2 (UniProt Q16512)
inactive: [1] 0.01 | [2] 0.002 | [3] 0.019 | [4] 0.014 | Nexturastat A 0.053 | vemurafenib 0.023 | [5] 0.03 | [6] 0.022 | givinostat 0.059 | barasertib 0.03

Reference: the supplement of paper PMC10849652
